# From the supplement of paper PMC10032668
# Amino acid sequences for entries named in this document (tags omitted).
# DCTN1, Q14203, UniProt Q14203, whole entry: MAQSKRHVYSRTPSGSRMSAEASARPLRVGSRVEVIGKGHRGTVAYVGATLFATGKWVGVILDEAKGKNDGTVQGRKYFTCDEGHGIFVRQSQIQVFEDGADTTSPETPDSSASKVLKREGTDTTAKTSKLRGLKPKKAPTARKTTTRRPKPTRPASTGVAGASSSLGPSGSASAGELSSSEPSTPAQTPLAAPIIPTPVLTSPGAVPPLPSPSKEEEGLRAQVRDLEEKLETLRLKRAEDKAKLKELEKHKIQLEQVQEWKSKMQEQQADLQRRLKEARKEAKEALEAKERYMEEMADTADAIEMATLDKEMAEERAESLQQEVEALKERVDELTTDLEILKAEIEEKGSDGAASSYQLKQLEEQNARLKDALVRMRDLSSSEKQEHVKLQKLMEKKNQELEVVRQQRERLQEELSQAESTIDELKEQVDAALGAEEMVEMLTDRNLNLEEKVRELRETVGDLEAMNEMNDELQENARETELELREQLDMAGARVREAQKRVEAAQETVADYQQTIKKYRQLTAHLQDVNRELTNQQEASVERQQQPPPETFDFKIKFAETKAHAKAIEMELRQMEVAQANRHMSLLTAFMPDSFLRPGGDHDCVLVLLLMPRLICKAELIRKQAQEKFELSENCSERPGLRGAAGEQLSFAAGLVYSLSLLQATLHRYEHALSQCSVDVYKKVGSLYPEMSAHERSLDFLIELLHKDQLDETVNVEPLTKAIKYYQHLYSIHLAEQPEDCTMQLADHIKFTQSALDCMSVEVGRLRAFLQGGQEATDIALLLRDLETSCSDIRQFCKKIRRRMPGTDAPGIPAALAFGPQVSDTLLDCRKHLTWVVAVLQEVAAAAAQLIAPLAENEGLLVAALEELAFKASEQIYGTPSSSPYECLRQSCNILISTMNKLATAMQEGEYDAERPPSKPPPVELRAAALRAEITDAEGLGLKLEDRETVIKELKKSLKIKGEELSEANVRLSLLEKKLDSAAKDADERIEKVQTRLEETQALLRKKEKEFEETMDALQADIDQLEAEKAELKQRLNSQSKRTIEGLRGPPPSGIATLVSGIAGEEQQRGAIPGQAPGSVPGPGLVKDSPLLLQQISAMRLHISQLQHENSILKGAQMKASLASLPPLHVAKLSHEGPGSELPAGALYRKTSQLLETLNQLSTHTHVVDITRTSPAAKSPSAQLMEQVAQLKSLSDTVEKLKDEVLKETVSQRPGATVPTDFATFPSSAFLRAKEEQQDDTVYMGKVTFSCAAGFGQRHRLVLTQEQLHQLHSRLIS
# EIF1, P41567, UniProt P41567, whole entry: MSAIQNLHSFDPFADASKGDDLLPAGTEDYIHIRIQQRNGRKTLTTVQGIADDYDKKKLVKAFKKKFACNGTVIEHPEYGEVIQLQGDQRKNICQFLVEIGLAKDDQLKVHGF
# EIF1B, O60739, UniProt O60739, whole entry: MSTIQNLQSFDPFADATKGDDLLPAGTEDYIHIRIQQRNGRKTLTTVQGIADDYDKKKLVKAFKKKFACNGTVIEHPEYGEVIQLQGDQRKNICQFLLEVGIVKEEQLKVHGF
# EPB41L2, O43491, UniProt O43491, whole entry: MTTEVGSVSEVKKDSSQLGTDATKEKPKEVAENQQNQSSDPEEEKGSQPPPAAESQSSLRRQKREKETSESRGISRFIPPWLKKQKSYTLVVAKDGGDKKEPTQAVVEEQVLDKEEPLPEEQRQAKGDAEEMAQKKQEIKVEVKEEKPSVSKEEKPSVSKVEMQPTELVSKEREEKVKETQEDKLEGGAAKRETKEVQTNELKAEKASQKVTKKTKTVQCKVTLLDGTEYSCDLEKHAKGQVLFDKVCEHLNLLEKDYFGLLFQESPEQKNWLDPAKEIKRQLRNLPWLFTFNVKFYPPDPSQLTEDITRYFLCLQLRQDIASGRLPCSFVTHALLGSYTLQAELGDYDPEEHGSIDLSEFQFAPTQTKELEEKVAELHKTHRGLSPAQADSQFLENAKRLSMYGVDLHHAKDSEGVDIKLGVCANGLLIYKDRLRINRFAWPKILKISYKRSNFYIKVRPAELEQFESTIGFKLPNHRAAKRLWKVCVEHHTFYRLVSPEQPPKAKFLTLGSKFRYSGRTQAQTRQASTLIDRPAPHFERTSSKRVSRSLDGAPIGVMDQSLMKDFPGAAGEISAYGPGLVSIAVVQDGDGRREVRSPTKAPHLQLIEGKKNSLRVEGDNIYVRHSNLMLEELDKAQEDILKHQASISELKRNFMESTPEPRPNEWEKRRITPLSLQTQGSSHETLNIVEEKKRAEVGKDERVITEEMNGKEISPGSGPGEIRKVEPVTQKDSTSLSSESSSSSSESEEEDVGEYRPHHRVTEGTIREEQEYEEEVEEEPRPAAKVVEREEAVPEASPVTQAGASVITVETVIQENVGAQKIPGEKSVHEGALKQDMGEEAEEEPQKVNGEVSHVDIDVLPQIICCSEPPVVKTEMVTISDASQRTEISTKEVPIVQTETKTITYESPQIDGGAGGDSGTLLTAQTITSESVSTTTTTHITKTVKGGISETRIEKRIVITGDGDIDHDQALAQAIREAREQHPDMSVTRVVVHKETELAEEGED
# LARP4B, Q92615, UniProt Q92615, whole entry: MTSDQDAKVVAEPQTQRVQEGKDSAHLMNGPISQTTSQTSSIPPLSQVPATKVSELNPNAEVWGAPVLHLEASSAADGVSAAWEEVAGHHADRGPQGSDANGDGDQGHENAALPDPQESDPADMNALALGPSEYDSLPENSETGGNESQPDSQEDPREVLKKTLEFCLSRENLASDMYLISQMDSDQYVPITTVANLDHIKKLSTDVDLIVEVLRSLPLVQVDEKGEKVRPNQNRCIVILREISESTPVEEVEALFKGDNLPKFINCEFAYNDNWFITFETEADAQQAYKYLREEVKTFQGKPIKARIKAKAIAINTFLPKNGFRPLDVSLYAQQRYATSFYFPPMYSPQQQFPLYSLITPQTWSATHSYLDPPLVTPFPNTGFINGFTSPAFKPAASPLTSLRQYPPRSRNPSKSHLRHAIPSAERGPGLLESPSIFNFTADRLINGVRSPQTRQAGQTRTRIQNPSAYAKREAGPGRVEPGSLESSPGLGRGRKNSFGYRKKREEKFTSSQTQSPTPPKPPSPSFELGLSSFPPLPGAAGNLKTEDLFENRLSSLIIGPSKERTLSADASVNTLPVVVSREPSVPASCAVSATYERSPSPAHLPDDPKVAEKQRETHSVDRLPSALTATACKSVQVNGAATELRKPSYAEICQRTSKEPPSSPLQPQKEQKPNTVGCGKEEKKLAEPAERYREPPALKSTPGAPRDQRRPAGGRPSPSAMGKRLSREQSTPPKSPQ
# MTHFD1L, Q6UB35, UniProt Q6UB35, whole entry: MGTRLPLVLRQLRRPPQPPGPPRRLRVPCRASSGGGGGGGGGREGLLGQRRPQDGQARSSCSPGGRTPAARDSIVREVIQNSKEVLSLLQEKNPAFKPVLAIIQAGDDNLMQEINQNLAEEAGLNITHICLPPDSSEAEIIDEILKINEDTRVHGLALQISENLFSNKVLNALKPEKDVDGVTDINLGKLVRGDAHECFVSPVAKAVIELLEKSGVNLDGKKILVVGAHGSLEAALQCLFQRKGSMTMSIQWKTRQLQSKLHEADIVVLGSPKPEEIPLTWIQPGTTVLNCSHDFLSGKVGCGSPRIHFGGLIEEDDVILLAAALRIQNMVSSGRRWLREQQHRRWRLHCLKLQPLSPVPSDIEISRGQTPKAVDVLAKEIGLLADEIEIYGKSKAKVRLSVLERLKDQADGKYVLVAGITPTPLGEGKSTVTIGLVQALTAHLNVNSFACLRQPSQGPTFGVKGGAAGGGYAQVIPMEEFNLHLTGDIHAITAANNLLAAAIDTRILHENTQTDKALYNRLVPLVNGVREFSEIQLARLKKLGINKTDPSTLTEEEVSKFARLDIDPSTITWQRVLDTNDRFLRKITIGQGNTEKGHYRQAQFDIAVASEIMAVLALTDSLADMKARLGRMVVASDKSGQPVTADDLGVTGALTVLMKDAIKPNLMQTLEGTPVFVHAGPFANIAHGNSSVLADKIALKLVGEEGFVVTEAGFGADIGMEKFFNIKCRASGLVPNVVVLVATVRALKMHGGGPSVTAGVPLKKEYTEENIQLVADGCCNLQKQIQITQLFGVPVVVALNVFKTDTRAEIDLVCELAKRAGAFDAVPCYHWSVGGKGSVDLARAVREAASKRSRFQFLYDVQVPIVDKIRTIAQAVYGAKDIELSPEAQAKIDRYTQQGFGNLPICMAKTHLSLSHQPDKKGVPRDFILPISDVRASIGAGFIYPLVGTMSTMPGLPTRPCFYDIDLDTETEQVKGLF
# NDUFS6, O75380, UniProt O75380, whole entry: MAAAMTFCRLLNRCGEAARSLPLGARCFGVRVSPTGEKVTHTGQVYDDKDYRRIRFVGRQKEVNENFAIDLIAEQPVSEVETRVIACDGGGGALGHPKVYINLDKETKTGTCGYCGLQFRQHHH
# NFRKB, Q6P4R8, UniProt Q6P4R8, whole entry: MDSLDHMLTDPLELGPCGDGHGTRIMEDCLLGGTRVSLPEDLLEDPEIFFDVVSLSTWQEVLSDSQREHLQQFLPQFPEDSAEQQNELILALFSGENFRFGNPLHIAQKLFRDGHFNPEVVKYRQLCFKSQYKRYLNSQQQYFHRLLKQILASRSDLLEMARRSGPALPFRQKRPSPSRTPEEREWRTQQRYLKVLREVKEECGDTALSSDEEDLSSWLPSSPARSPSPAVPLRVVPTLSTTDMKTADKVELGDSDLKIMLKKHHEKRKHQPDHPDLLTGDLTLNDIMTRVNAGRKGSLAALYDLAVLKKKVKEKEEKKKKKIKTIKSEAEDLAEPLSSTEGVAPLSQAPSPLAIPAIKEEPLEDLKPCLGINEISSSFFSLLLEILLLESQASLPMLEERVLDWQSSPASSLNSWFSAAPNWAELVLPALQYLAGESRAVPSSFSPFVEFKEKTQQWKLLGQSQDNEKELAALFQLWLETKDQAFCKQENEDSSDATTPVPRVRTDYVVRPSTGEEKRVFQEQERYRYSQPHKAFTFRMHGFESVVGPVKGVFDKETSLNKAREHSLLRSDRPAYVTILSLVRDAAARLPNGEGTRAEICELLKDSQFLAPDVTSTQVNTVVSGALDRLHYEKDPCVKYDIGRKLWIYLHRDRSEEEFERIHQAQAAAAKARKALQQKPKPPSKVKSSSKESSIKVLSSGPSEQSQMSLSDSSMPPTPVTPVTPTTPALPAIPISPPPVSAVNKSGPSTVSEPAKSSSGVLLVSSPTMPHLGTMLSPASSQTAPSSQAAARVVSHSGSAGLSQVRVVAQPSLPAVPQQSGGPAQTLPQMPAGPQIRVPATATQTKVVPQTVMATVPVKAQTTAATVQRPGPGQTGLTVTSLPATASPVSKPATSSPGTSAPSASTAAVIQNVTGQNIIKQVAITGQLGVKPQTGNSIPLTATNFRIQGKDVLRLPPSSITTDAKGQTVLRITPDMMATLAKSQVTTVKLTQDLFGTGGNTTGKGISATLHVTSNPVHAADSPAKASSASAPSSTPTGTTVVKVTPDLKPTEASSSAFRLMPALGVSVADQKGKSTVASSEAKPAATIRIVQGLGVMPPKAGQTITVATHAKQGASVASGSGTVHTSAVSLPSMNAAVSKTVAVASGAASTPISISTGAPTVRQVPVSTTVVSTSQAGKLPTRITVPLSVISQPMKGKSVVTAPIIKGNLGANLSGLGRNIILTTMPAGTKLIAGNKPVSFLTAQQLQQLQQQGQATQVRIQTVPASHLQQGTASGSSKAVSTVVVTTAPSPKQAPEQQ
# NFYA, P23511, UniProt P23511, whole entry: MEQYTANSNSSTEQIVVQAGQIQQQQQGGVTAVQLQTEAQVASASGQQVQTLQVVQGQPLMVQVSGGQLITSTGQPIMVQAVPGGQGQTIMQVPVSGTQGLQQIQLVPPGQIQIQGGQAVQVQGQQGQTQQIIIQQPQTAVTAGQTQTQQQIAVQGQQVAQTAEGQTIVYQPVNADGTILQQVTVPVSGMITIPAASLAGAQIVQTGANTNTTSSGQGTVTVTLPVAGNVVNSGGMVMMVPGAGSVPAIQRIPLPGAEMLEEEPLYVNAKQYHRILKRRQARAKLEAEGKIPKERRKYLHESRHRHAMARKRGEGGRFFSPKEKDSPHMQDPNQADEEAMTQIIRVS
# PARK7, Q99497, UniProt Q99497, whole entry: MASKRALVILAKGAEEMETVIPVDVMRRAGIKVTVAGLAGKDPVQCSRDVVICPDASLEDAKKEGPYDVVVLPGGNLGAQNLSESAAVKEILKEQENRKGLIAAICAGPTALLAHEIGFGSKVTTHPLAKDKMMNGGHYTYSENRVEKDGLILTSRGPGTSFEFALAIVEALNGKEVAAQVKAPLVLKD
# PCBP2, Q15366, UniProt Q15366, whole entry: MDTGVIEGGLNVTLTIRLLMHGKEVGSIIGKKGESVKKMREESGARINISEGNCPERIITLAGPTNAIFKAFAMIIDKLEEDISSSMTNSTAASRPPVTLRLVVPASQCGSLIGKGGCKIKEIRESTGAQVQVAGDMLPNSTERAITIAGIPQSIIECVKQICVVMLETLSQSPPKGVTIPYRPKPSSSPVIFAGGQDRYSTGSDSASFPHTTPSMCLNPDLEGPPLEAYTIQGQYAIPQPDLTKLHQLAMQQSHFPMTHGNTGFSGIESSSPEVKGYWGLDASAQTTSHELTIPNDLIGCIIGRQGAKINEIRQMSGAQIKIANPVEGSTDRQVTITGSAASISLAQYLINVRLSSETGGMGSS
# ± gives the standard deviation of the averaged measurements. This is one part of the list. The list holds hits alone, and they repeat only in part.
# Experiments:
# Experiment in all cases: PRISMA enrichment of interactor (LFQ) in peptide spot vs all other peptide spots (log2 fold change); higher = stronger / more specific binding of the interactor to the peptide
# CXorf56, Q9H5V9 = biological target: CXorf56, Q9H5V9
# Experimental: (§1)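 PRISMA: 221 full-length sORF-encoded peptides (3-15 aa), plus SOS1/GLUT1 control peptides, were spot-synthesized on cellulose membranes in triplicate. Membranes were incubated with HEK293T lysate, and bound proteins were identified by LC-MS/MS with LFQ. Enrichment is the log2 fold change versus all other peptide spots; only significant interactors are listed (cutoff c=6, x0=2.8).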
# DAZAP1, Q96EP5 = biological target: DAZAP1, Q96EP5
# Experimental: as §1
# DCTN1, Q14203 = biological target: DCTN1, Q14203
# Experimental: as §1
# DDX6, P26196 = biological target: DDX6, P26196
# Experimental: as §1
# DERPC, P0CG12 = biological target: DERPC, P0CG12
# Experimental: as §1
# DIDO1, Q9BTC0 = biological target: DIDO1, Q9BTC0
# Experimental: as §1
# DIS3, Q9Y2L1 = biological target: DIS3, Q9Y2L1
# Experimental: as §1
# DNAJB11, Q9UBS4 = biological target: DNAJB11, Q9UBS4
# Experimental: as §1
# EDF1, O60869 = biological target: EDF1, O60869
# Experimental: as §1
# EIF1, P41567 = biological target: EIF1, P41567
# Experimental: as §1
# EIF1B, O60739 = biological target: EIF1B, O60739
# Experimental: as §1
# EIF4H, Q15056 = biological target: EIF4H, Q15056
# Experimental: as §1
# ELF2, Q15723 = biological target: ELF2, Q15723
# Experimental: as §1
# EP400, Q96L91 = biological target: EP400, Q96L91
# Experimental: as §1
# EPB41L2, O43491 = biological target: EPB41L2, O43491
# Experimental: as §1
# FAM168A, Q92567 = biological target: FAM168A, Q92567
# Experimental: as §1
# FAM207A, Q9NSI2 = biological target: FAM207A, Q9NSI2
# Experimental: as §1
# FOXK1, P85037 = biological target: FOXK1, P85037
# Experimental: as §1
# FOXK2, Q01167 = biological target: FOXK2, Q01167
# Experimental: as §1
# GATAD2A, Q86YP4 = biological target: GATAD2A, Q86YP4
# Experimental: as §1
# HCFC1, P51610 = biological target: HCFC1, P51610
# Experimental: as §1
# HDLBP, Q00341 = biological target: HDLBP, Q00341
# Experimental: as §1
# ISCU, Q9H1K1 = biological target: ISCU, Q9H1K1
# Experimental: as §1
# KIF22, Q14807 = biological target: KIF22, Q14807
# Experimental: as §1
# KIF23, Q02241 = biological target: KIF23, Q02241
# Experimental: as §1
# KIF2C, Q99661 = biological target: KIF2C, Q99661
# Experimental: as §1
# KMT2A, Q03164 = biological target: KMT2A, Q03164
# Experimental: as §1
# KNSTRN, Q9Y448 = biological target: KNSTRN, Q9Y448
# Experimental: as §1
# LARP4, Q71RC2 = biological target: LARP4, Q71RC2
# Experimental: as §1
# LARP4B, Q92615 = biological target: LARP4B, Q92615
# Experimental: as §1
# LEO1, Q8WVC0 = biological target: LEO1, Q8WVC0
# Experimental: as §1
# LIN54, Q6MZP7 = biological target: LIN54, Q6MZP7
# Experimental: as §1
# LSM14A, Q8ND56 = biological target: LSM14A, Q8ND56
# Experimental: as §1
# MAP2K7, O14733 = biological target: MAP2K7, O14733
# Experimental: as §1
# MBNL1, Q9NR56 = biological target: MBNL1, Q9NR56
# Experimental: as §1
# MCRIP2, Q9BUT9 = biological target: MCRIP2, Q9BUT9
# Experimental: as §1
# MPP1, Q00013 = biological target: MPP1, Q00013
# Experimental: as §1
# MTHFD1L, Q6UB35 = biological target: MTHFD1L, Q6UB35
# Experimental: as §1
# NAMPT, P43490 = biological target: NAMPT, P43490
# Experimental: as §1
# NDUFS6, O75380 = biological target: NDUFS6, O75380
# Experimental: as §1
# NFRKB, Q6P4R8 = biological target: NFRKB, Q6P4R8
# Experimental: as §1
# NFYA, P23511 = biological target: NFYA, P23511
# Experimental: as §1
# NOB1, Q9ULX3 = biological target: NOB1, Q9ULX3
# Experimental: as §1
# [1] = substrate: NOSIP, Q9Y314
# Experimental: as §1
# NTPCR, Q9BSD7 = biological target: NTPCR, Q9BSD7
# Experimental: as §1
# NUFIP2, Q7Z417 = biological target: NUFIP2, Q7Z417
# Experimental: as §1
# NUP153, P49790 = biological target: NUP153, P49790
# Experimental: as §1
# NUP50, Q9UKX7 = biological target: NUP50, Q9UKX7
# Experimental: as §1
# NUSAP1, Q9BXS6 = biological target: NUSAP1, Q9BXS6
# Experimental: as §1
# NXF1, Q9UBU9 = biological target: NXF1, Q9UBU9
# Experimental: as §1
# OGT, O15294 = biological target: OGT, O15294
# Experimental: as §1
# PARK7, Q99497 = biological target: PARK7, Q99497
# Experimental: as §1
# PBDC1, Q9BVG4 = biological target: PBDC1, Q9BVG4
# Experimental: as §1
# PCBP2, Q15366 = biological target: PCBP2, Q15366
# Experimental: as §1
# PCLAF, Q15004 = biological target: PCLAF, Q15004
# Experimental: as §1
# [2] = substrate: PCNP, Q8WW12
# Experimental: as §1
binder,measurement,setting,value
MAASSEIIIQVFVS [VPS8],PRISMA enrichment of interactor (log2),"CXorf56, Q9H5V9",4.96
same,PRISMA enrichment of interactor (log2),"DAZAP1, Q96EP5",5.09
same,PRISMA enrichment of interactor (log2),"DCTN1, Q14203",4.67
same,PRISMA enrichment of interactor (log2),"DDX6, P26196",5.13
same,PRISMA enrichment of interactor (log2),"DERPC, P0CG12",5.28
same,PRISMA enrichment of interactor (log2),"DIDO1, Q9BTC0",10.4
same,PRISMA enrichment of interactor (log2),"DIS3, Q9Y2L1",4.83
same,PRISMA enrichment of interactor (log2),"DNAJB11, Q9UBS4",7.79
same,PRISMA enrichment of interactor (log2),"EDF1, O60869",4.86
same,PRISMA enrichment of interactor (log2),"EIF1, P41567",5.6
same,PRISMA enrichment of interactor (log2),"EIF1B, O60739",5.76
same,PRISMA enrichment of interactor (log2),"EIF4H, Q15056",5.02
same,PRISMA enrichment of interactor (log2),"ELF2, Q15723",6.1
same,PRISMA enrichment of interactor (log2),"EP400, Q96L91",5.89
same,PRISMA enrichment of interactor (log2),"EPB41L2, O43491",4.84
same,PRISMA enrichment of interactor (log2),"FAM168A, Q92567",5.04
same,PRISMA enrichment of interactor (log2),"FAM207A, Q9NSI2",4.15
same,PRISMA enrichment of interactor (log2),"FOXK1, P85037",5.58
same,PRISMA enrichment of interactor (log2),"FOXK2, Q01167",6.91
same,PRISMA enrichment of interactor (log2),"GATAD2A, Q86YP4",4.89
same,PRISMA enrichment of interactor (log2),"HCFC1, P51610",8 ± 3.3
same,PRISMA enrichment of interactor (log2),"HDLBP, Q00341",5.44
same,PRISMA enrichment of interactor (log2),"ISCU, Q9H1K1",6.17
same,PRISMA enrichment of interactor (log2),"KIF22, Q14807",4.73
same,PRISMA enrichment of interactor (log2),"KIF23, Q02241",4.43
same,PRISMA enrichment of interactor (log2),"KIF2C, Q99661",5.12
same,PRISMA enrichment of interactor (log2),"KMT2A, Q03164",4.43
same,PRISMA enrichment of interactor (log2),"KNSTRN, Q9Y448",4.3
same,PRISMA enrichment of interactor (log2),"LARP4, Q71RC2",6.33
same,PRISMA enrichment of interactor (log2),"LARP4B, Q92615",4.71
same,PRISMA enrichment of interactor (log2),"LEO1, Q8WVC0",5.43
same,PRISMA enrichment of interactor (log2),"LIN54, Q6MZP7",6.37
same,PRISMA enrichment of interactor (log2),"LSM14A, Q8ND56",4.68
same,PRISMA enrichment of interactor (log2),"MAP2K7, O14733",4.19
same,PRISMA enrichment of interactor (log2),"MBNL1, Q9NR56",6.03
same,PRISMA enrichment of interactor (log2),"MCRIP2, Q9BUT9",3.7
same,PRISMA enrichment of interactor (log2),"MPP1, Q00013",4.13
same,PRISMA enrichment of interactor (log2),"MTHFD1L, Q6UB35",4.63
same,PRISMA enrichment of interactor (log2),"NAMPT, P43490",4.87
same,PRISMA enrichment of interactor (log2),"NDUFS6, O75380",5.21
same,PRISMA enrichment of interactor (log2),"NFRKB, Q6P4R8",8.15
same,PRISMA enrichment of interactor (log2),"NFYA, P23511",4.71
same,PRISMA enrichment of interactor (log2),"NOB1, Q9ULX3",5.99
same,PRISMA enrichment of interactor (log2),[1],4.81
same,PRISMA enrichment of interactor (log2),"NTPCR, Q9BSD7",5.64
same,PRISMA enrichment of interactor (log2),"NUFIP2, Q7Z417",5.91
same,PRISMA enrichment of interactor (log2),"NUP153, P49790",9.38
same,PRISMA enrichment of interactor (log2),"NUP50, Q9UKX7",4.36
same,PRISMA enrichment of interactor (log2),"NUSAP1, Q9BXS6",5.35
same,PRISMA enrichment of interactor (log2),"NXF1, Q9UBU9",6.47
same,PRISMA enrichment of interactor (log2),"OGT, O15294",11
same,PRISMA enrichment of interactor (log2),"PARK7, Q99497",4.98
same,PRISMA enrichment of interactor (log2),"PBDC1, Q9BVG4",3.94
same,PRISMA enrichment of interactor (log2),"PCBP2, Q15366",4.77 ± 1.1
same,PRISMA enrichment of interactor (log2),"PCLAF, Q15004",4.23
same,PRISMA enrichment of interactor (log2),[2],6.04

# Three consecutive records from above, quoted:
binder,measurement,setting,value
MAASSEIIIQVFVS [VPS8],PRISMA enrichment of interactor (log2),"NTPCR, Q9BSD7",5.64
same,PRISMA enrichment of interactor (log2),"NUFIP2, Q7Z417",5.91
same,PRISMA enrichment of interactor (log2),"NUP153, P49790",9.38
